Here are results for 1 substance from publication PMC9156709.

Amino acid sequences for entries named in this document (tags omitted). A change or cut given only in a name is not applied to a line headed by its entry.
UniProt P54646: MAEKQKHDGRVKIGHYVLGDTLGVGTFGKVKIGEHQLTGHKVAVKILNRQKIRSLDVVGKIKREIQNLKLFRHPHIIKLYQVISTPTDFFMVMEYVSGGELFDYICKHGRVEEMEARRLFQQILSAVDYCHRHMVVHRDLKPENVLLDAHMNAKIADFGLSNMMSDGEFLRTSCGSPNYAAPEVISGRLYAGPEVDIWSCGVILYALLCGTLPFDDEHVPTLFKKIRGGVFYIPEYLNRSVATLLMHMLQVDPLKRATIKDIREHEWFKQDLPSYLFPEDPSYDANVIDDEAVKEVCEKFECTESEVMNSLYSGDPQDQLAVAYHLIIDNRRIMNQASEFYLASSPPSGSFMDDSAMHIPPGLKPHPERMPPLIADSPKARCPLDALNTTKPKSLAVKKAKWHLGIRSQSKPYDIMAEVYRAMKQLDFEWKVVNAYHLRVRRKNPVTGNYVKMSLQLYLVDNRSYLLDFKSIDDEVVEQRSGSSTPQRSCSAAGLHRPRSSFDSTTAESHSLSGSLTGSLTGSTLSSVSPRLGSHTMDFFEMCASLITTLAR

For this experiment, the target named is T1, Flag-HA tagged PFKP (human) (UniProt Q01813).
T1 sequence: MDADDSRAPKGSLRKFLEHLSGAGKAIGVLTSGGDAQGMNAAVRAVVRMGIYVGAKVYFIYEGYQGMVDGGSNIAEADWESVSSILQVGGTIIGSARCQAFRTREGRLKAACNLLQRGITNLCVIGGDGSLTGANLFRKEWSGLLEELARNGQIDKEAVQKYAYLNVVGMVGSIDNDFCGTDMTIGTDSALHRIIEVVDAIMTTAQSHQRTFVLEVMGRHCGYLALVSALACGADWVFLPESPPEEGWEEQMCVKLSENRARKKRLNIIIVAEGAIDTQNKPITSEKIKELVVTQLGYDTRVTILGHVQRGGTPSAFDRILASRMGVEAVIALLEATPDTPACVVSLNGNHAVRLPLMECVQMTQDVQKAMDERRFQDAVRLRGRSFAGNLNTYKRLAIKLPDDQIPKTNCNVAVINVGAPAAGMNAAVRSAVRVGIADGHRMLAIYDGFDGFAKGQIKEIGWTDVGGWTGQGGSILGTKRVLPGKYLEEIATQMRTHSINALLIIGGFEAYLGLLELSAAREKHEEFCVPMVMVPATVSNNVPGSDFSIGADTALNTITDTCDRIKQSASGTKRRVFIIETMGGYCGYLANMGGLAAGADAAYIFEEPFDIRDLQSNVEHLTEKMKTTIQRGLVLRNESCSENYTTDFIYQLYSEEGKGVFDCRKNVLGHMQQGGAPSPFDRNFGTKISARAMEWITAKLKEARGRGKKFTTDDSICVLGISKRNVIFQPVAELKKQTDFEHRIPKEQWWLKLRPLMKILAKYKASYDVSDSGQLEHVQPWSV
The experiment can be described thus: pull-down; in vitro protein-protein interaction assay: Flag-HA tagged PFKP or domains purified by Flag IP and held on FLAG M2 beads, incubated with 50 ng tagged AMPK complex in 1 mL lysis buffer (20 mM Tris pH 7.4, 150 mM NaCl, 1 mM EDTA, 1 mM EGTA, 1% Triton X-100) for 1 h at room temperature, washed thrice, western blot; both purified. In general terms: In western blotting, separated proteins are transferred to a membrane and probed.

No constants are given. Whether binding was seen depends on the method and setting. Some entries that bind do so weakly or less than the wild type. Where a sequence is shown, tags or fusion partners need not be part of it.

For “GST-His tagged AMPKα2/β2/γ3 (from UniProt P54646 1-552; O43741 1-272; Q9UGI9 1-489) (complex)”, the binding entry is “binds”.
